Experimental data: PubChem BioAssay AID1224830 (NIAID, 2016)
Here is an unselected part of about 18,000 reagents. About 2,900 of all reagents (16%) were called active. 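Calls are made per well; low scores hint the gene aids the LPS response, high scores that it dampens it.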 Repeated entries: four replicate wells of each siRNA pool.

Screen: 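Genes whose knock-down alters the TNF-alpha reporter response to LPS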 (primary screen)
System: human THP-1 monocytic leukaemia cells, TNF dual-luciferase reporter clone, PMA-differentiated to macrophage-like cells
Knock-down reagent: siRNA pool against human genes, 50 nM
Duration: LPS for 4 h, given about 3 days after siRNA transfection
Challenge: bacterial LPS (TLR4 ligand), 10 ng/ml
Detection: 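Ratio of firefly to renilla light, scaled to the plate median and expressed as a robust z-score per replicate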
Direction: TNF reporter robust z-score: higher = stronger TNF reporter response to LPS
Call rule: 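a well is active when its z-score exceeds 2.8 or falls below -1.5; control wells carry no call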

no.	gene	TNF reporter robust z-score	Outcome
1	OGA	0.61	inactive
2	OGA	-0.66	inactive
3	OGA	1.28	inactive
4	OGA	1.08	inactive
5	FGF6	-0.96	inactive
6	FGF6	-0.27	inactive
7	FGF6	-0.98	inactive
8	FGF6	-0.46	inactive
9	MPDU1	-0.99	inactive
10	MPDU1	-0.23	inactive
11	MPDU1	-0.87	inactive
12	MPDU1	-0.36	inactive
13	OR5M11	0.46	inactive
14	OR5M11	0	inactive
15	OR5M11	0.03	inactive
16	OR5M11	-0.05	inactive

The list goes on, starting with the last 5 of the part before.
no.	gene	TNF reporter robust z-score	Outcome
12	MPDU1	-0.36	inactive
13	OR5M11	0.46	inactive
14	OR5M11	0	inactive
15	OR5M11	0.03	inactive
16	OR5M11	-0.05	inactive
17	TEAD3	-0.13	inactive
18	TEAD3	-0.07	inactive
19	TEAD3	-1.05	inactive
20	TEAD3	0.96	inactive
21	CLDN19	-1.24	inactive
22	CLDN19	-0.85	inactive
23	CLDN19	-1.3	inactive
24	CLDN19	-0.9	inactive
25	THOP1	-1.29	inactive
26	THOP1	-1.38	inactive
27	THOP1	-1.65	active
28	THOP1	-1	inactive
29	CENPF	1.1	inactive
30	CENPF	0.65	inactive
31	CENPF	0.98	inactive
32	CENPF	0.44	inactive
33	PLPBP	-0.57	inactive
34	PLPBP	0.24	inactive
35	PLPBP	-0.07	inactive
36	PLPBP	0.12	inactive
37	FRG1	0.57	inactive
38	FRG1	0.09	inactive
39	FRG1	0.08	inactive
40	FRG1	0.4	inactive
41	FOXN1	-0.72	inactive
42	FOXN1	0.85	inactive
43	FOXN1	2.31	inactive
44	FOXN1	0.54	inactive
45	SLC35E3	-0.87	inactive
46	SLC35E3	-0.84	inactive
47	SLC35E3	-0.24	inactive
48	SLC35E3	-0.8	inactive
